Earlier results in US20010021514A1, “Luminescent metal-ligand complexes” (priority 1999, published 2001).
At least one structure is not confirmed: it was looked up by name or label, or the drawing left a doubt.

Settings: cited from earlier work

O=C1OC2(c3ccc(O)cc3Oc3cc(O)ccc32)c2ccccc21 [fluorescein]
luminescence lifetime (general statement) (background statement on known luminophores): roughly 4 nanoseconds
luminescence lifetime of free fluorescein (free fluorescein): about 4 ns
